The source of these data is article PMC7305319, “Talin dissociates from RIAM and associates to vinculin sequentially in response to the actomyosin force” (Nature Communications, 2020).

Chains of the proteins cited; added tags and fusions are not shown. Residues count along the entry.
UniProt Q9Y490, residues 196-405: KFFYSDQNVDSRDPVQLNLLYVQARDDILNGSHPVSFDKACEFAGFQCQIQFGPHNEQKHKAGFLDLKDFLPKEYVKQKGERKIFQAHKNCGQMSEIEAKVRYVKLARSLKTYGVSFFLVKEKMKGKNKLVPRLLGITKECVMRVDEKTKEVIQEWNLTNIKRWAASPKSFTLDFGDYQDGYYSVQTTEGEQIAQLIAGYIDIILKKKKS

For this assay, the target named is talin F2–F3 (talin 196–405) (human) (UniProt Q9Y490). As to the kind of experiment: fluorescence microscopy of protein-coated micropatterns; talin construct (1 µM during coating) on 5 µm disk micropatterns, 0–1 µM mCherry-RIAM 1-306 in solution, no actomyosin; Kd estimated as the RIAM concentration at half saturation; both purified.

No constants are given. Whether binding was seen depends on the method and setting.

B1: mCherry-RIAM 1-306 (domain or fragment, mouse, UniProt Q8R5A3 1-306, looked up)
chain: MGESNEDIDQMFSTLLGEMDLLTQSLGVDTLPPPDPNPPREEFNYTVGFKDLNESLNALEDQDLDALMADLVADISEAEQRTIQAQKESSQNQDRFALLRASDGQGTASGGYGASAAAIDVSHHEEALPPPPVEPMLDLLPPPPPPPPPELLSKEEEEAKAKADKIKLALEKLKEAKVKKLVVKVHMDDSSTKSLMVDERQLARDVLDNLFEKTHCDCNVDWCLYEIYPELQIERVFEDHENVVEVLSDWTRDTENKVLFLEKEERYAVFKNPQNFYLDNKGKKENKETNEKMNAKNKEYLLEESF
notes: Cloned in a homemade pGEX-6P2-mCherry plasmid; source: E. coli BL21 DE3, purified (glutathione-Sepharose, PreScission cleavage, Ni-NTA); not shown: GST, N-terminal, cleaved
For the molecule B1, the binding result is listed as “no binding”.
